PubChem BioAssay AID504744 – Drosophila RNAi Screening Center – 2011
In all, the deposit lists about 23,000 reagents; this is an unselected part of those with a known target gene and a result. In the full data, 98 (0.43%) got an active call. 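Only hit calls are given; the phospho-dAkt signals, z-scores and hit direction were not deposited.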 Reagent sequences are not shown.

- Test: 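Uncover factors, including feedback loops, that control dAkt activation in fly cells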 (primary screen)
- System: Drosophila Kc167 cells
- Reagent: long dsRNA against Drosophila genes, 250 ng dsRNA per well of a 384-well plate
- Time to read-out: 3 days of knock-down, then overnight serum-free starvation before stimulation
- Conditions: bovine insulin at 387 nM for 10 minutes after 12 h without serum
- Detection: 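In-cell antibody fluorescence for phospho-dAkt in each well over DNA-dye signal, with log2 residuals expressed as z-scores adjusted for cell count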
- Active means: 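Hit in the insulin screen when the two-replicate mean z-score is more extreme than plus or minus 2.5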

l(3)72Dn (lethal (3) 72Dn) [DRSC10468]
- outcome: inactive

Eig71Ej [DRSC11157]
- outcome: inactive

CG14324 [DRSC14803]
- outcome: inactive

natalisin [DRSC14966]
- outcome: inactive

natalisin [DRSC14967]
- outcome: inactive

FASN3 (Fatty acid synthase 3) [DRSC20882]
- outcome: inactive

NO66 (Nucleolar protein 66) [DRSC18252]
- outcome: inactive

CG10348 [DRSC02043]
- outcome: inactive

CG10348 [DRSC21908]
- outcome: inactive

Continued (2 carried over from the part before).
CG10348 [DRSC02043]
- outcome: inactive

CG10348 [DRSC21908]
- outcome: inactive

gas (gasoline) [DRSC04521]
- outcome: inactive

CG12567 [DRSC20845]
- outcome: inactive

shd (shade) [DRSC11129]
- outcome: inactive

CG7333 [DRSC16229]
- outcome: inactive

CG12499 [DRSC14521]
- outcome: inactive

Scgbeta (Sarcoglycan beta) [DRSC15854]
- outcome: inactive

polyph (polyphemus) [DRSC06254]
- outcome: inactive

CG31287 [DRSC13138]
- outcome: inactive

CG16825 [DRSC02526]
- outcome: inactive

Prosalpha5 (Proteasome alpha5 subunit) [DRSC07514]
- outcome: inactive

Gpo3 (Glycerophosphate oxidase 3) [DRSC01978]
- outcome: inactive

tai (taiman) [DRSC02207]
- outcome: inactive

tai (taiman) [DRSC02673]
- outcome: inactive

CG13059 [DRSC09942]
- outcome: inactive
